{"source": "patent US12403104B2", "about": "“Compounds and methods of promoting myelination” (Case Western Reserve University, priority 2016, dated 2025)", "biological_target": "T1, EBP (Mus musculus, UniProt P70245)", "T1 construct": "active EBP was obtained from mouse microsomes; from tissue", "T1 sequence (P70245 1-230)": "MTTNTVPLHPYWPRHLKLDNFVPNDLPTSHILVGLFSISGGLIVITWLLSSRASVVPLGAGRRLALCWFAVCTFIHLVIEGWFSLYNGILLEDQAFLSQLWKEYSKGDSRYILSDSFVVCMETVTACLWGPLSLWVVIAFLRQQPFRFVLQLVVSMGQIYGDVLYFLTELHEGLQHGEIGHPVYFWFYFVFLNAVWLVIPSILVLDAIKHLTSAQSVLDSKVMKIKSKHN", "test": "EBP enzymatic assay (GC/MS)", "type": "biochemical", "settings": "10 μM, zymostenol 25 μM", "data": [{"smiles": "CN1CCC[C@@H]1CCO[C@](C)(c1ccccc1)c1ccc(Cl)cc1", "note": "[clemastine, Clemastine]", "values": [{"measurement": "inhibition of EBP enzymatic activity", "value": "clear inhibition"}]}]}
